# Source: US9023616B2, “Oil producing microbes and method of modification thereof” (DSM Nutritional Products AG, priority 2006, dated 2015)
# “Also recorded” adds a separate entry of the source. At least one structure is not confirmed: it was looked up by name or label, or the drawing left a doubt.
# Tested on: ONC-T18
# Assay: Fatty acid production antagonist supplementation of ONC-T18 culture, fatty acid profile by FAME GC-FID
# Assay type: cell-based, Thraustochytrium sp. ONC-T18
# Conditions: antagonist added to medium
# Method: Media containing 25 g/l sea salt and 1 g/l yeast extract was autoclaved at 120° C. for 20 minutes. Sterilized glucose was added to the media at a concentration of 9 g/l. Sethoxydim (Supleco) was dissolved in dimethyl sulfoxide at a concentration of 5 mg/ml was then added to the media at to represent a final concentration of 100 µM. 1 ml of a 24 hour pre-culture of ONC-T 18 that had been cultured in the same media was added. Culturing was carried out in a shaker (130 rpm) for four days at room temperature. After the incubation period, cells were harvested by centrifugation at 4300 rpm for 10 minutes. The cell pellets were then freeze-dried, weighed and the oil was extracted from the cells.
# The lipids were extracted and derivatized to fatty acid methyl esters (FAME) for gas chromatography analysis (GC). Transesterification and extraction was done using 200 mg freeze dried cells, with C19:0 as internal standard, added transesterification reaction mix (methanol:hydrochloric acid:chloroform, 10:1:1) mixed and heated at 90° C. for 2 hours, then allowed to cool at room temperature. FAMEs were extracted by adding 1 ml water, and 2 ml hexane:chloroform (4:1), and allow organic and aqueous phases to separate. The organic layer was extracted and treated with 0.5 g of anhydrous sodium sulfate to remove particulates and residual water. The organic solvents were evaporated under a stream of argon. The FAMEs were re-suspended in 5 ml of iso-octane and analyzed by GC-FID. The percent conversion was calculated by dividing the product produced by the sum of (the product produced plus the substrate added) and then multiplying by 100.
# Media containing 6 g/l sea salt, 2 g/l yeast extract, and 8 g/l L-glutamic acid monosodium salt hydrate was autoclaved at 120° C. for 20 minutes. Sterilized D+-glucose was then added to this media at a concentration of 40 g/l. Cerulenin dissolved in ethanol at a concentration of 5 mg/ml was added to 250 ml flask and the solvent was evaporated for 1 hour prior to adding the media to the flask. The amount of cerulenin in the flask represented a final concentration of 20 mg/l. ONC-T18 was then added to the medium from a plate culture and culturing occurred in a shaker (130 rpm) at room temperature for four days. After the incubation period, cells were harvested by centrifugation at 4300 rpm for 10 minutes, washed once with distilled water, and then centrifuged again at 4300 rpm for 10 minutes. […]
# The lipids were extracted and derivatized to fatty acid methyl esters (FAME) for gas chromatography analysis (GC). […] The FAMEs were re-suspended in 5 ml of iso-octane and analyzed by GC-FID. The percent conversion was calculated by dividing the product produced by the sum of (the product produced+the substrate added) and then multiplying by 100. […]
structure (smiles),measurement,value
Cc1ccccc1C(=O)O [toluic acid],"DHA accumulated in ONC-T18, change versus control (in words)",decrease
same,"DPA (n-6) proportion in ONC-T18 fatty acid profile, change versus control (in words)",decreasing the proportion of DPA (n6); also recorded: decrease
same,"DPA n-3 proportion in ONC-T18 fatty acid profile, change versus control (in words)",increase
same,"EPA in ONC-T18 fatty acid profile, change versus control (in words)",increase the proportion of EPA
